According to ChEMBL document CHEMBL1156892, “Synthesis and in vitro evaluation of bisphosphonated glycopeptide prodrugs for the treatment of osteomyelitis” (Bioorg Med Chem Lett, 2010):
Converted amounts (≈) assume the structure as drawn.

Test system: Bacillus subtilis
Experiment: Antibacterial activity against Bacillus subtilis 1A754 by agar diffusion assay
Type: functional

SMILES: CN[C@H](CC(C)C)C(=O)N[C@H]1C(=O)N[C@@H](CC(N)=O)C(=O)N[C@H]2C(=O)N[C@H]3C(=O)N[C@H](C(=O)N[C@H](C(=O)O)c4cc(O)cc(O)c4-c4cc3ccc4O)[C@H](O)c3ccc(c(Cl)c3)Oc3cc2cc(c3O[C@@H]2O[C@H](CO)[C@@H](O)[C@H](O)[C@H]2O[C@H]2C[C@](C)(N)[C@H](O)[C@H](C)O2)Oc2ccc(cc2Cl)[C@H]1O [VANCOMYCIN]
- MIC: 0.5 µg/mL (≈ 0.345 µM)
